From article PMC6368322
These are yes or no findings as the source states them, for the method shown. Binding seen in cells or lysates may run through a third protein. Some binding calls cover weakened binding; strength is not graded here. Where a sequence is shown, tags or fusion partners need not be part of it. Each block holds one binder with its values, some of them ahead of it.

Assays:
[1] = target: T1, AtTCTP-GFP (line AtTCTPg-GFP, own promoter) (Arabidopsis thaliana) (UniProt P31265); experiment: co-IP; anti-GFP antibody coupled to magnetic uMACS microbeads, 1 hour at 4°C, Miltenyi lysis buffer with protease inhibitors; extracts of Arabidopsis seedlings, mature green seeds or inflorescences; Western blot of eluates
T1 sequence: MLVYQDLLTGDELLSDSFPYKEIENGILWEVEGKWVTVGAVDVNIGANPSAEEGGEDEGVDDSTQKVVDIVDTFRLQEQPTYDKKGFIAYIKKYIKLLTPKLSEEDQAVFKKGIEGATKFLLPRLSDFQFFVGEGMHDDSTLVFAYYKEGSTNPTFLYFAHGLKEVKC

[2] = target: T2, AtTCTP-GFP (line 35S::AtTCTP-GFP) (Arabidopsis thaliana) (UniProt P31265); experiment: as above
T2 sequence: T1 sequence

[3] = target: T3, dTCTP-GFP (Drosophila TCTP fused to GFP) (Drosophila) (UniProt Q9VGS2); experiment: as above
T3 sequence: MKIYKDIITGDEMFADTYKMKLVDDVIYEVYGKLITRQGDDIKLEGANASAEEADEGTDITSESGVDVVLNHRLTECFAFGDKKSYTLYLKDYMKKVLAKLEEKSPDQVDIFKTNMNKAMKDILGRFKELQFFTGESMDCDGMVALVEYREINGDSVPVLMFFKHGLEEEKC

[4] = target: AtCSN4 fused with N- or C-terminal YFP moiety (BiFC) (Arabidopsis thaliana) (UniProt Q8L5U0); experiment: split reporter; BiFC with split YFP moieties, co-expression in Nicotiana benthamiana leaf epidermal cells, observed four days post-infiltration by confocal microscopy
[5] = target: T4, AtTCTP fused with N- or C-terminal YFP moiety (BiFC) (Arabidopsis thaliana) (UniProt P31265); experiment: as above
T4 sequence: T1 sequence

[6] = target: T5, AtCSN4-GFP (Arabidopsis thaliana) (UniProt Q8L5U0); experiment: co-IP; anti-GFP antibody coupled to magnetic uMACS microbeads, 1 hour at 4°C, Miltenyi lysis buffer with protease inhibitors; extracts of Arabidopsis seedlings, mature green seeds or inflorescences; Western blot of eluates
T5 sequence: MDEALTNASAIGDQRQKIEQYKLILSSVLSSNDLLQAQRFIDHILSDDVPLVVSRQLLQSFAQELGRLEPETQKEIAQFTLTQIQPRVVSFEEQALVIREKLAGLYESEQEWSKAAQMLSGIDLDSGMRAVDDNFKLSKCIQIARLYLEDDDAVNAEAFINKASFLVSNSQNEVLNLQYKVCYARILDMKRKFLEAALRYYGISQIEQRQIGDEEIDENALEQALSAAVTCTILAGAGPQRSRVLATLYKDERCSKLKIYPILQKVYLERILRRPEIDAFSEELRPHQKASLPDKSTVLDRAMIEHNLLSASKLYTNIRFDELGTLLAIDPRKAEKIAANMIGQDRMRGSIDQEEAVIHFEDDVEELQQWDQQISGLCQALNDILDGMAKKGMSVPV

binding [6]: binds
B4: AtTCTP (untagged) (protein, UniProt P31265 1-168)
chain: T1 sequence

binding [5]: binds
B5: AtTCTP fused with N- or C-terminal YFP moiety (BiFC) (protein, UniProt P31265 1-168)
chain: T1 sequence

Continued, binder first:

B1: AtCSN4-Flag (protein, UniProt Q8L5U0 1-397)
chain: T5 sequence
binding [1]: binds

B2: AtCSN4 (endogenous), subunit 4 of the COP9 Signalosome (protein, UniProt Q8L5U0 1-397)
chain: T5 sequence
binding [2]: binds
binding [1]: binds
binding [3]: binds

B3: AtCSN4 fused with N- or C-terminal YFP moiety (BiFC) (protein, UniProt Q8L5U0 1-397)
chain: T5 sequence
binding [4]: binds
binding [5]: binds
